Laboratory results: PubChem BioAssay AID1508597 (Cure First, 2020)

Test: 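Knock-downs altering ovarian cancer cell survival with or without PARP inhibitor rucaparib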 (primary screen)
Cells: human ovarian carcinoma lines grown from tumours: OCI-P5x (papillary serous) and OCI-C5x (clear cell)
Knock-down reagent: siRNA pool against human genes, 1.25 pmol siRNA per well
Duration: 72 h or 96 h, depending on the cell culture
Treatment: rucaparib 20 µM (about IC30) or vehicle, present until read-out
Rucaparib or vehicle: Vehicle
Cell line: OCI-C5x (clear cell)
Measurement: 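Luminescent ATP-based viability assay read 72 or 96 h after transfection, depending on culture, given as normalised percent viability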
Scale: viability, normalised: higher = more viable cells remaining
Rule for the call: 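a well counts as a hit if its normalised viability is under 80 percent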
Meaning of the calls: active = viability under 80%; inactive = viability 80% or more
This is an unselected part of the about 2,100 reagents, under one of the conditions tested. 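Calls flag viability under 80% in either arm, not effects specific to rucaparib; the reference for percent is not stated.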 Some reagents were tested in more than one well and are listed for each. Not given: the 100% reference.

| gene symbol | technical replicate | viability, normalised (%) | outcome |
| --- | --- | --- | --- |
| PARP3 (GeneID 10039) | 1 | 33.2 | active |
| PARP3 (GeneID 10039) | 1 | 65 | active |
| PARP3 (GeneID 10039) | 2 | 37.8 | active |
| PARP3 (GeneID 10039) | 2 | 30.8 | active |
| PARP3 (GeneID 10039) | 3 | 49.1 | active |
| PARP3 (GeneID 10039) | 3 | 43.4 | active |
| H4C15 (GeneID 554313) | 1 | 64.2 | active |
| H4C15 (GeneID 554313) | 2 | 56.4 | active |
| H4C15 (GeneID 554313) | 3 | 62.4 | active |
| PRKACA (GeneID 5566) | 1 | 66.5 | active |
| PRKACA (GeneID 5566) | 2 | 49.4 | active |
| PRKACA (GeneID 5566) | 3 | 61.2 | active |
| RAE1 (GeneID 8480) | 1 | 37.3 | active |
| RAE1 (GeneID 8480) | 2 | 34.5 | active |
| RAE1 (GeneID 8480) | 3 | 36.2 | active |
| ACVRL1 (GeneID 94) | 1 | 56.6 | active |
| ACVRL1 (GeneID 94) | 2 | 48.1 | active |
| ACVRL1 (GeneID 94) | 3 | 57.4 | active |
| XPA (GeneID 7507) | 1 | 48.5 | active |
| XPA (GeneID 7507) | 2 | 52.5 | active |
| XPA (GeneID 7507) | 3 | 43.5 | active |
| MLLT6 (GeneID 4302) | 1 | 59.2 | active |
| MLLT6 (GeneID 4302) | 2 | 55.1 | active |
| MLLT6 (GeneID 4302) | 3 | 50.4 | active |
| FGFR4 (GeneID 2264) | 1 | 64.9 | active |
| FGFR4 (GeneID 2264) | 2 | 60.7 | active |
| FGFR4 (GeneID 2264) | 3 | 65.5 | active |
| EXT1 (GeneID 2131) | 1 | 67.1 | active |
| EXT1 (GeneID 2131) | 2 | 64.9 | active |
| EXT1 (GeneID 2131) | 3 | 62.2 | active |
| DDX10 (GeneID 1662) | 1 | 33.9 | active |
| DDX10 (GeneID 1662) | 2 | 44 | active |
| DDX10 (GeneID 1662) | 3 | 50 | active |
| H4C4 (GeneID 8360) | 1 | 46.6 | active |
| H4C4 (GeneID 8360) | 2 | 50.2 | active |
| H4C4 (GeneID 8360) | 3 | 39.5 | active |
| COQ8A (GeneID 56997) | 1 | 57.7 | active |
| COQ8A (GeneID 56997) | 2 | 65.9 | active |
| COQ8A (GeneID 56997) | 3 | 52.9 | active |

3 neighbouring reagents from above:
| gene symbol | technical replicate | viability, normalised (%) | outcome |
| --- | --- | --- | --- |
| DDX10 (GeneID 1662) | 2 | 44 | active |
| DDX10 (GeneID 1662) | 3 | 50 | active |
| H4C4 (GeneID 8360) | 1 | 46.6 | active |
